# Measured values reported in the supplement of paper PMC8728848.
# The other results are listed elsewhere or left out.
# B1: OS9 (Arabidopsis thaliana) (protein)
# chain: MRGSHHHHHHGMASMTGGQQMGRDLYDDDDKSRLQIFPAHLVGTFSRNNREPKYKIEFLPEDSPFHPGDNLESMVMLDKHGNRFLCYLPKEEKATSGWTSSQQNISTVMMETQQLVKLKTPDELLQPLSEKCLFRQEGWWSYEFCHQKYVRQLHVEDENKIVQEFFLGTFDPEATAAFNQTVSDASTDASQRYHSHVYTNGTTCDLTGSPAEVEVRFVCAETRAMVTSITELSTCKYALTVQCPTLCKHPLFQLEKPVSHTIHCNAIPVEEDATRNKEEQAVDESPKMIADS
# Legend:
# Experiment in all cases: glycan array binding signal (z-score within array); higher = stronger binding
# Details in all cases: glycan notation: IUPAC condensed, linker removed; mutation: R201A
# [1] = target: Gal(b1-3)GlcNAc(b1-3)Gal(b1-4)GlcNAc(b1-2)Man(a1-3)[Gal(b1-3)GlcNAc(b1-3)Gal(b1-4)GlcNAc(b1-2)Man(a1-6)]Man(b1-4)GlcNAc(b1-4)GlcNAc
# Summary of the method: (§1)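 Arrays were curated from the Consortium for Functional Glycomics database, 3228 in total, and kept only where the protein sequence was available. Binding is expressed as a within-array Z-score. This score was averaged across arrays of the same protein sequence at different concentrations or buffers and across linkers, and negative values can be read as non-binding.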
# [2] = target: Gal(b1-3)GlcNAc(b1-3)Gal(b1-4)GlcNAc(b1-2)[Gal(b1-3)GlcNAc(b1-3)Gal(b1-4)GlcNAc(b1-6)]Man(a1-6)[Gal(b1-3)GlcNAc(b1-3)Gal(b1-4)GlcNAc(b1-2)Man(a1-3)]Man(b1-4)GlcNAc(b1-4)[Fuc(a1-6)]GlcNAc
# Summary of the method: as §1
# [3] = target: Gal(b1-3)GlcNAc(b1-3)Gal(b1-4)GlcNAc(b1-3)Gal(b1-4)GlcNAc(b1-2)[Gal(b1-3)GlcNAc(b1-3)Gal(b1-4)GlcNAc(b1-3)Gal(b1-4)GlcNAc(b1-6)]Man(a1-6)[Gal(b1-3)GlcNAc(b1-3)Gal(b1-4)GlcNAc(b1-3)Gal(b1-4)GlcNAc(b1-2)Man(a1-3)]Man(b1-4)GlcNAc(b1-4)[Fuc(a1-6)]GlcNAc
# Summary of the method: as §1
# [4] = target: Gal(b1-3)GlcNAc(b1-3)Gal(b1-4)GlcNAc(b1-6)[Gal(b1-3)GlcNAc(b1-3)]Gal(b1-4)Glc
# Summary of the method: as §1
# [5] = target: Gal(b1-3)GlcNAc(b1-3)Gal(b1-4)[Fuc(a1-3)]GlcNAc
# Summary of the method: as §1
# [6] = target: Gal(b1-3)GlcNAc(b1-3)Gal(b1-4)[Fuc(a1-3)]GlcNAc(b1-6)[Gal(b1-3)GlcNAc(b1-3)]Gal(b1-4)Glc
# Summary of the method: as §1
# [7] = target: Gal(b1-3)GlcNAc(b1-3)GalNAc
# Summary of the method: as §1
# [8] = target: Gal(b1-3)GlcNAc(b1-6)Gal(b1-4)GlcNAc
# Summary of the method: as §1
# [9] = target: Gal(b1-3)GlcNAc(b1-6)GalNAc
# Summary of the method: as §1
# [10] = target: Gal(b1-3)GlcNAc(b1-6)[Gal(b1-3)]GalNAc
# Summary of the method: as §1
# Gal(b1-3)GlcNAc6S = target: Gal(b1-3)GlcNAc6S
# Summary of the method: as §1
# [11] = target: Gal(b1-3)[Fuc(a1-4)]GlcNAc
# Summary of the method: as §1
# [12] = target: Gal(b1-3)[Fuc(a1-4)]GlcNAc(b1-2)Man
# Summary of the method: as §1
# [13] = target: Gal(b1-3)[Fuc(a1-4)]GlcNAc(b1-2)Man(a1-3)[Gal(b1-3)[Fuc(a1-4)]GlcNAc(b1-2)Man(a1-6)]Man(b1-4)GlcNAc(b1-4)[Fuc(a1-6)]GlcNAc
# Summary of the method: as §1
# [14] = target: Gal(b1-3)[Fuc(a1-4)]GlcNAc(b1-3)Gal(b1-3)[Fuc(a1-4)]GlcNAc
# Summary of the method: as §1
# [15] = target: Gal(b1-3)[Fuc(a1-4)]GlcNAc(b1-3)Gal(b1-4)[Fuc(a1-3)]GlcNAc
# Summary of the method: as §1
# [16] = target: Gal(b1-3)[Fuc(a1-4)]GlcNAc(b1-6)GalNAc
# Summary of the method: as §1
# [17] = target: Gal(b1-3)[GlcNAc(b1-6)]GalNAc
# Summary of the method: as §1
# [18] = target: Gal(b1-3)[Neu5Ac(a2-6)]GalNAc
# Summary of the method: as §1
# [19] = target: Gal(b1-3)[Neu5Ac(a2-6)]GlcNAc(b1-4)Gal(b1-4)Glc
# Summary of the method: as §1
# [20] = target: Gal(b1-3)[Neu5Ac(b2-6)]GalNAc
# Summary of the method: as §1
# Gal(b1-4)Gal = target: Gal(b1-4)Gal
# Summary of the method: as §1
# [21] = target: Gal(b1-4)GalNAc(a1-3)[Fuc(a1-2)]Gal(b1-4)GlcNAc
# Summary of the method: as §1
# [22] = target: Gal(b1-4)GalNAc(b1-3)[Fuc(a1-2)]Gal(b1-4)GlcNAc
# Summary of the method: as §1
# Gal(b1-4)Glc = target: Gal(b1-4)Glc
# Summary of the method: as §1
# Gal(b1-4)Glc6S = target: Gal(b1-4)Glc6S
# Summary of the method: as §1
# Gal(b1-4)GlcNAc = target: Gal(b1-4)GlcNAc
# Summary of the method: as §1
# [23] = target: Gal(b1-4)GlcNAc(a1-6)Gal(b1-4)GlcNAc
# Summary of the method: as §1
# Gal(b1-4)GlcNAc(b1-2)Man = target: Gal(b1-4)GlcNAc(b1-2)Man
# Summary of the method: as §1
# [24] = target: Gal(b1-4)GlcNAc(b1-2)Man(a1-3)Man(b1-4)GlcNAc(b1-4)GlcNAc
# Summary of the method: as §1
# [25] = target: Gal(b1-4)GlcNAc(b1-2)Man(a1-3)[Gal(b1-4)GlcNAc(b1-2)Man(a1-6)]Man(b1-4)GlcNAc(b1-4)GlcNAc
# Summary of the method: as §1
# [26] = target: Gal(b1-4)GlcNAc(b1-2)Man(a1-3)[Gal(b1-4)GlcNAc(b1-2)Man(a1-6)]Man(b1-4)GlcNAc(b1-4)[Fuc(a1-6)]GlcNAc
# Summary of the method: as §1
# [27] = target: Gal(b1-4)GlcNAc(b1-2)Man(a1-3)[Gal(b1-4)GlcNAc(b1-2)Man(a1-6)][Gal(b1-4)GlcNAc(b1-4)]Man(b1-4)GlcNAc(b1-4)[Fuc(a1-6)]GlcNAc
# Summary of the method: as §1
# [28] = target: Gal(b1-4)GlcNAc(b1-2)Man(a1-3)[Gal(b1-4)GlcNAc(b1-2)Man(a1-6)][GlcNAc(b1-4)]Man(b1-4)GlcNAc(b1-4)[Fuc(a1-6)]GlcNAc
# Summary of the method: as §1
# [29] = target: Gal(b1-4)GlcNAc(b1-2)Man(a1-3)[GlcNAc(b1-2)Man(a1-6)]Man(b1-4)GlcNAc(b1-4)GlcNAc
# Summary of the method: as §1
# [30] = target: Gal(b1-4)GlcNAc(b1-2)Man(a1-3)[GlcNAc(b1-4)][Gal(b1-4)GlcNAc(b1-2)Man(a1-6)]Man(b1-4)GlcNAc(b1-4)GlcNAc
# Summary of the method: as §1
# [31] = target: Gal(b1-4)GlcNAc(b1-2)Man(a1-3)[Man(a1-6)]Man(b1-4)GlcNAc(b1-4)GlcNAc
# Summary of the method: as §1
# [32] = target: Gal(b1-4)GlcNAc(b1-2)Man(a1-6)Man(b1-4)GlcNAc(b1-4)GlcNAc
# Summary of the method: as §1
binder,measurement,setting,value
B1,glycan array binding signal (z-score),[1],0.55
same,glycan array binding signal (z-score),[2],0.308
same,glycan array binding signal (z-score),[3],0.462
same,glycan array binding signal (z-score),[4],-0.461
same,glycan array binding signal (z-score),[5],1.62
same,glycan array binding signal (z-score),[6],-0.413
same,glycan array binding signal (z-score),[7],0.187
same,glycan array binding signal (z-score),[8],-0.145
same,glycan array binding signal (z-score),[9],0.173
same,glycan array binding signal (z-score),[10],-1.36
same,glycan array binding signal (z-score),Gal(b1-3)GlcNAc6S,-0.5
same,glycan array binding signal (z-score),[11],0.297
same,glycan array binding signal (z-score),[12],0.975
same,glycan array binding signal (z-score),[13],-0.282
same,glycan array binding signal (z-score),[14],-0.772
same,glycan array binding signal (z-score),[15],0.195
same,glycan array binding signal (z-score),[16],-0.839
same,glycan array binding signal (z-score),[17],-0.157
same,glycan array binding signal (z-score),[18],-0.273
same,glycan array binding signal (z-score),[19],-0.546
same,glycan array binding signal (z-score),[20],0.653
same,glycan array binding signal (z-score),Gal(b1-4)Gal,-0.819
same,glycan array binding signal (z-score),[21],-0.449
same,glycan array binding signal (z-score),[22],-0.217
same,glycan array binding signal (z-score),Gal(b1-4)Glc,-0.247
same,glycan array binding signal (z-score),Gal(b1-4)Glc6S,0.392
same,glycan array binding signal (z-score),Gal(b1-4)GlcNAc,-0.525
same,glycan array binding signal (z-score),[23],-0.112
same,glycan array binding signal (z-score),Gal(b1-4)GlcNAc(b1-2)Man,-0.212
same,glycan array binding signal (z-score),[24],-0.439
same,glycan array binding signal (z-score),[25],-0.788
same,glycan array binding signal (z-score),[26],-0.592
same,glycan array binding signal (z-score),[27],-0.811
same,glycan array binding signal (z-score),[28],-0.394
same,glycan array binding signal (z-score),[29],-0.425
same,glycan array binding signal (z-score),[30],-0.779
same,glycan array binding signal (z-score),[31],0.199
same,glycan array binding signal (z-score),[32],-0.45

# Fetched one by one from above, 2 records:
binder,measurement,setting,value
B1,glycan array binding signal (z-score),[7],0.187
same,glycan array binding signal (z-score),[1],0.55
